Experimental data: patent US6528619B1, “Inhibitors for urokinase receptor” (Roche Diagnostics GmbH, priority 1997, dated 2003)
Results are given in words; binding and its absence hold for the method and conditions named. Some entries that bind do so weakly or less than the wild type.

Amino acid sequences for entries named in this document (tags omitted). Residues count along the entry.
UniProt Q03405, residues 23-299: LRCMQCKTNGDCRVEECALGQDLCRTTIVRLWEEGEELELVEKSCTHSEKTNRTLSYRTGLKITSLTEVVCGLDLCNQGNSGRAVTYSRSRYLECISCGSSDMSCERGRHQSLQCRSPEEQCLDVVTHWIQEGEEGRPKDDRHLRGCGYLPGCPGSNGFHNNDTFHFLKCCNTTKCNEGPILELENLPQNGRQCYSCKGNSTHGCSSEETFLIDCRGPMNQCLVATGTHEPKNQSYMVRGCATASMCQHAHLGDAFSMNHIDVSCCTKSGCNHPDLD

Target: T1, recombinant human uPAR from CHO cells (human, UniProt Q03405 23-299, limits assumed)
T1 construct: Magdolen et al. 1995; also called immobilized uPAR
Assay: solid phase binding test, competition with ATF on immobilized recombinant uPAR

binding: binds
Binder: CVSNKYFSNIHWC (Linear form) [linear peptide uPA19-31]
